Measurements reported in PubChem BioAssay AID1259327 (Drosophila RNAi Screening Center, 2017)

- Assay: 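Data from controls in screens of zinc and manganese toxicity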
- System: Drosophila S2R+ cells
- Reagent: long dsRNA against Drosophila genes
- Duration: 5 days (water added on day 4, read one day later)
- Conditions: water added as vehicle, no metal, one day before read-out
- Detection: 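Total ATP measured by luciferase light, scaled to plate mean, duplicates averaged, then z-scored across plates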
- Direction: ATP z-score: higher = more total ATP than typical wells; ATP luminescence: higher = more total ATP
- Rule for the call: 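a hit is any knock-down whose absolute ATP z-score is greater than 1.5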
- Meaning of the calls: active = hit: ATP up or down; inactive = no clear ATP change
Shown is one part, drawn at random, of about 3,100 reagents. 378 of all reagents (12%) were called active. 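Hits include both directions; z-score sign shows ATP rise or fall; raw luminescence values are not plate-normalised.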 The numbers tell different reagents against one gene apart. Names joined by + are all predicted targets of the reagent. Not stated in the record: the amount of reagent.

Depletion of Irk2 (GeneID 42770) #1 came out at: ATP z-score, duplicate mean 0.368; ATP luminescence, replicate 1 (RLU) = 7.68e5; ATP luminescence, replicate 2 (RLU) = 7.20e5; inactive.
Knock-down of Irk2 (GeneID 42770) #2 came out at: ATP z-score, duplicate mean 0.503; ATP luminescence, replicate 1 (RLU) = 4.87e5; ATP luminescence, replicate 2 (RLU) = 5.13e5; inactive.
For CG32246 (GeneID 317936) #1, the entry reads ATP z-score, duplicate mean -0.152; ATP luminescence, replicate 1 (RLU) = 6.91e5; ATP luminescence, replicate 2 (RLU) = 7.63e5; inactive.
For CG32246 (GeneID 317936) #2, the entry reads ATP z-score, duplicate mean 0.748; ATP luminescence, replicate 1 (RLU) = 9.18e5; ATP luminescence, replicate 2 (RLU) = 9.08e5; inactive.
Silencing of CG30008 (GeneID 246388) #1 gave: ATP z-score, duplicate mean 0.229; ATP luminescence, replicate 1 (RLU) = 4.31e5; ATP luminescence, replicate 2 (RLU) = 7.70e5; inactive.
With knock-down of CG30008 (GeneID 246388) #2 the results were ATP z-score, duplicate mean 0.826; ATP luminescence, replicate 1 (RLU) = 2.51e5; ATP luminescence, replicate 2 (RLU) = 9.72e5; inactive.
For KaiR1D (GeneID 42473) the deposit lists ATP z-score, duplicate mean -0.262; ATP luminescence, replicate 1 (RLU) = 2.91e5; ATP luminescence, replicate 2 (RLU) = 7.25e5; inactive.
CG13877 + pyx gave ATP z-score, duplicate mean -0.211; ATP luminescence, replicate 1 (RLU) = 5.52e5; ATP luminescence, replicate 2 (RLU) = 6.49e5; inactive.
For Grl36a (GeneID 170887) the deposit lists ATP z-score, duplicate mean -0.336; ATP luminescence, replicate 1 (RLU) = 5.31e5; ATP luminescence, replicate 2 (RLU) = 5.72e5; inactive.
Depletion of Ir11a (GeneID 32189) #1 resulted in: ATP z-score, duplicate mean -0.0328; ATP luminescence, replicate 1 (RLU) = 6.27e5; ATP luminescence, replicate 2 (RLU) = 6.72e5; inactive.
After knock-down of Ir11a (GeneID 32189) #2, the screen gave ATP z-score, duplicate mean -0.793; ATP luminescence, replicate 1 (RLU) = 4.19e5; ATP luminescence, replicate 2 (RLU) = 3.82e5; inactive.
Knock-down of ZnT63C (GeneID 38407) #1 resulted in: ATP z-score, duplicate mean -1.36; ATP luminescence, replicate 1 (RLU) = 5.68e5; ATP luminescence, replicate 2 (RLU) = 6.24e5; inactive.
ZnT63C (GeneID 38407) #2 scored ATP z-score, duplicate mean -0.97; ATP luminescence, replicate 1 (RLU) = 6.33e5; ATP luminescence, replicate 2 (RLU) = 6.41e5; inactive.
ZnT63C (GeneID 38407) #3 showed ATP z-score, duplicate mean -2.52; ATP luminescence, replicate 1 (RLU) = 6.12e5; ATP luminescence, replicate 2 (RLU) = 4.35e5; active.

Reformatted: results already given
predicted target | reagent no. | ATP z-score, duplicate mean | ATP luminescence, replicate 1 (RLU) | ATP luminescence, replicate 2 (RLU) | activity call
Irk2 (GeneID 42770) | 1 | 0.368 | 7.68e5 | 7.20e5 | inactive
Irk2 (GeneID 42770) | 2 | 0.503 | 4.87e5 | 5.13e5 | inactive
CG32246 (GeneID 317936) | 1 | -0.152 | 6.91e5 | 7.63e5 | inactive
CG32246 (GeneID 317936) | 2 | 0.748 | 9.18e5 | 9.08e5 | inactive

Continued.
Against Or43b (GeneID 35743) #1, the entry reads ATP z-score, duplicate mean -0.453; ATP luminescence, replicate 1 (RLU) = 5.28e5; ATP luminescence, replicate 2 (RLU) = 6.30e5; inactive.
Or43b (GeneID 35743) #2 scored ATP z-score, duplicate mean 0.144; ATP luminescence, replicate 1 (RLU) = 9.40e5; ATP luminescence, replicate 2 (RLU) = 7.49e5; inactive.
For nompC (GeneID 33768) #1 the deposit lists ATP z-score, duplicate mean 0.214; ATP luminescence, replicate 1 (RLU) = 7.66e5; ATP luminescence, replicate 2 (RLU) = 7.32e5; inactive.
nompC (GeneID 33768) #2 scored ATP z-score, duplicate mean -0.551; ATP luminescence, replicate 1 (RLU) = 4.69e5; ATP luminescence, replicate 2 (RLU) = 4.09e5; inactive.
With knock-down of Osi6 (GeneID 40760) #1, the screen gave ATP z-score, duplicate mean 0.543; ATP luminescence, replicate 1 (RLU) = 1.01e6; ATP luminescence, replicate 2 (RLU) = 9.29e5; inactive.
Silencing of Osi6 (GeneID 40760) #2 gave: ATP z-score, duplicate mean -1.49; ATP luminescence, replicate 1 (RLU) = 6.30e5; ATP luminescence, replicate 2 (RLU) = 7.02e5; inactive.
After knock-down of Or33a (GeneID 34601) the results were ATP z-score, duplicate mean -0.368; ATP luminescence, replicate 1 (RLU) = 7.54e5; ATP luminescence, replicate 2 (RLU) = 6.22e5; inactive.
With knock-down of Mdr65 (GeneID 38726) the results were ATP z-score, duplicate mean 1; ATP luminescence, replicate 1 (RLU) = 1.06e6; ATP luminescence, replicate 2 (RLU) = 9.98e5; inactive.
Knock-down of Zip42C.2 (GeneID 35580) #1 resulted in: ATP z-score, duplicate mean 0.0457; ATP luminescence, replicate 1 (RLU) = 6.96e5; ATP luminescence, replicate 2 (RLU) = 5.51e5; inactive.
Against Zip42C.2 (GeneID 35580) #2, the values are ATP z-score, duplicate mean 0.0675; ATP luminescence, replicate 1 (RLU) = 5.21e5; ATP luminescence, replicate 2 (RLU) = 6.50e5; inactive.
Against Lgr4 (GeneID 5740505) #1, the values are ATP z-score, duplicate mean -0.248; ATP luminescence, replicate 1 (RLU) = 5.53e5; ATP luminescence, replicate 2 (RLU) = 6.42e5; inactive.
Depletion of Lgr4 (GeneID 5740505) #2 came out at: ATP z-score, duplicate mean -1.66; ATP luminescence, replicate 1 (RLU) = 5.43e5; ATP luminescence, replicate 2 (RLU) = 7.83e5; active.
Against Lgr4 (GeneID 5740505) #3, the entry reads ATP z-score, duplicate mean -0.38; ATP luminescence, replicate 1 (RLU) = 7.95e5; ATP luminescence, replicate 2 (RLU) = 8.53e5; inactive.
Ir100a (GeneID 43753) #1 gave ATP z-score, duplicate mean 1.71; ATP luminescence, replicate 1 (RLU) = 1.04e6; ATP luminescence, replicate 2 (RLU) = 1.08e6; active.
Knock-down of Ir100a (GeneID 43753) #2 gave: ATP z-score, duplicate mean 0.649; ATP luminescence, replicate 1 (RLU) = 5.21e5; ATP luminescence, replicate 2 (RLU) = 4.72e5; inactive.
With knock-down of CG4476 (GeneID 39056) #1, the screen gave ATP z-score, duplicate mean -0.412; ATP luminescence, replicate 1 (RLU) = 9.04e5; ATP luminescence, replicate 2 (RLU) = 7.83e5; inactive.
Against CG4476 (GeneID 39056) #2 the deposit lists ATP z-score, duplicate mean 0.278; ATP luminescence, replicate 1 (RLU) = 9.49e5; ATP luminescence, replicate 2 (RLU) = 7.72e5; inactive.
